In PMC7179958 (CPT: Pharmacometrics & Systems Pharmacology, 2020):

Tested on: human hepatocytes
Test: Uptake of pitavastatin and eltrombopag in cryopreserved human hepatocytes (oil spin method), comeasurement, micro‐rate constant mechanistic model
Type: in vitro ADME
Method: Human hepatocytes were obtained from BioIVT (Brussels, Belgium; lot number: LYB; 10 donor LiverPool (8 Caucasians, 1 African American, and 1 Hispanic) and thawed according to supplier guidelines in Leibovitz L15 medium. Hepatocytes were kept on ice prior to use and were used within 3 hours of defrosting.
Cells were separated using an oil spin method similar to the literature. ^11 , ^17 After separation, the tubes were frozen on dry ice and the bottom layer was cut off.
A dilution factor of 100 was used to scale from pmol/mL/1 × 10^5 cells to nmol/mL/1 × 10^6 cells.
Passive rate constants for movement into and out of the cell (k f.X and k bX, respectively) as well as uptake transporter‐mediated rate constants for association to the transporter (k aX) and dissociation (k dX) and translocation (k tX) from the transporter into the medium and cell, respectively. […] The sets of ODEs for all the models (models 1–4; Table 1 ) tested for structural identifiability and used for parameter estimation are included in the Supplemental Material .
Parameter estimation was conducted within Monolix 2018 R2 (Lixoft, Antony, France) for each concentration and experiment as an individual data set, where to ensure positivity, a log‐normal distribution was assumed for each parameter, with a proportional residual error model for the observations.
Hepatocyte Incubations. […] Eltrombopag was dissolved in DMSO to give 30 µmol/mL, then diluted 333-fold to 90 nmol/mL in Leibovitz L15 medium. […] Briefly, 0.5 mL microtubes (12049877, Thermo-Fisher Scientific, Gothenburg, Sweden) layered with 15 µL of 4 % cesium chloride onto which 140 µL of 8:2 silicone oil: mineral oil, with oil red O was added. Samples were taken by transferring 100 µL of hepatocyte suspension into the microtube and spun for 15 s in a Minispin centrifuge (Eppendorf, Horsholm, Denmark), during which time the hepatocytes passed through the oil into the cesium chloride bottom layer. […]

Compound	k bE relative to k bP (passive rate constant out of the cell, eltrombopag greater)	times k fP lower than k fE (passive rate into the cell, pitavastatin compared with eltrombopag) [times]	times k fP lower than k bP (pitavastatin passive rate constant into vs out of the cell) [times]
CC1=NN(c2ccc(C)c(C)c2)C(=O)/C1=N\Nc1cccc(-c2cccc(C(=O)O)c2)c1O [eltrombopag, Eltrombopag]	twofold	–	–
O=C(O)C[C@H](O)C[C@H](O)/C=C/c1c(C2CC2)nc2ccccc2c1-c1ccc(F)cc1 [pitavastatin, pitavastatin calcium]	–	91	380
